Construct, isoform or probe ends are uncertain for at least one entry. For some assays here: No signal at the amounts used counts as a negative. For some assays here: At least one verdict was read from the data and is not stated in words by the source.
Experiments:
[1] = system: DNMT1 WT (aa 351-1616) + H3Ub2 (isopeptide-linked ubiquitinated H3 tail); assay: cryo-EM (2.5 A, CXXC-ordered); conditions: covalent Cys1226-5fC complex, SAH, Zn; 5-methylcytosine at position 6 of strand 1; 5-fluorocytosine at position 6 of strand 2; recombinant protein; protein details: N-terminal His10-HRV3C tag, cleaved
[2] = system: DNMT1 WT (aa 351-1616) + H3Ub2 (isopeptide-linked ubiquitinated H3 tail); assay: size exclusion chromatography; conditions: covalent 5fC complex; 5-methylcytosine at position 6 of strand 1; 5-fluorocytosine at position 6 of strand 2; recombinant protein; protein details: N-terminal His10-HRV3C tag, cleaved
[3] = system: DNMT1 WT (aa 351-1616) + H3Ub2 (isopeptide-linked ubiquitinated H3 tail); assay: cryo-EM (2.2 A, CXXC-disordered); conditions: covalent Cys1226-5fC complex, SAH, Zn; 5-methylcytosine at position 6 of strand 1; 5-fluorocytosine at position 6 of strand 2; recombinant protein; protein details: N-terminal His10-HRV3C tag, cleaved
[4] = system: DNMT1 F631A/F632A (FF/AA, aa 351-1616) + H3Ub2S-S (disulfide-linked ubiquitinated H3 analog); assay: pull-down; conditions: SAH equimolar, H3Ub2S-S 2-equimolar excess; 5-methylcytosine at position 10 of strand 1; Pull-down: 20 mM Tris-HCl pH 7.5, 150 mM NaCl, 10% glycerol, 0.05% NP-40, 4 °C, 2 h; recombinant protein; protein details: N-terminal His10-HRV3C tag, cleaved; label: 5' biotin on strand 2
[5] = system: DNMT1 WT (aa 351-1616) + H3Ub2S-S (disulfide-linked ubiquitinated H3 analog); assay: pull-down; conditions: SAH equimolar, H3Ub2S-S 2-equimolar excess; 5-methylcytosine at position 10 of strand 1; Pull-down: 20 mM Tris-HCl pH 7.5, 150 mM NaCl, 10% glycerol, 0.05% NP-40, 4 °C, 2 h; recombinant protein; protein details: N-terminal His10-HRV3C tag, cleaved; label: 5' biotin on strand 2

| Sequence | binding result [1] | binding result [2] | binding result [3] | binding result [4] | binding result [5] |
| --- | --- | --- | --- | --- | --- |
| ACTTACGGAAGG (double strand) [DNAmCG/fCG 12-mer (cryo-EM)] | binds | binds | binds | – | – |
| CAGGCAATCCGGTAGATCGCA / TTGCGATCTACCGGATTGCCTG [21-bp biotinylated hemimethylated DNA (pull-down)] | – | – | – | no binding | binds |

Reference: PMC9681727
